The text below walks through data of publication PMC7615239.

Amino acid sequences for entries named in this document (tags omitted). A change or cut given only in a name is not applied to a line headed by its entry.
UniProt Q9LHF5: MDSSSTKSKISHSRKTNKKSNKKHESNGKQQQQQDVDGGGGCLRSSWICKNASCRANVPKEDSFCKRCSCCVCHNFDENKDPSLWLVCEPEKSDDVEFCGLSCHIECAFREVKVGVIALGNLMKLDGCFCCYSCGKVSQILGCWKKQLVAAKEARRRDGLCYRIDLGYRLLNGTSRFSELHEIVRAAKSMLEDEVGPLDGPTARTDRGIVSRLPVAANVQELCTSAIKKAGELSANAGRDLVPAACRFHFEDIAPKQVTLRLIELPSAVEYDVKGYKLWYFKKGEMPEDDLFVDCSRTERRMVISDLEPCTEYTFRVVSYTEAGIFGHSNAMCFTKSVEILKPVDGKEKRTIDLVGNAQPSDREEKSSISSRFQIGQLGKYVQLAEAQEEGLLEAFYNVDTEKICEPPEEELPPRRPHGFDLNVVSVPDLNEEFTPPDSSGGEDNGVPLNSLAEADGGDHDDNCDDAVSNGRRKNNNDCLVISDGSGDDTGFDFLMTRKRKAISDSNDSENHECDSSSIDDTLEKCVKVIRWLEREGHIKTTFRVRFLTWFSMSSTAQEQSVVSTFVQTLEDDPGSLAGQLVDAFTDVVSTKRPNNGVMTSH

The target of test [1] is strep tag II-tagged VRN5ΔVEL (Arabidopsis thaliana) (UniProt Q9LHF5). Briefly: co-purification of coexpressed proteins (Strep-tactin affinity, then size exclusion chromatography); five genes coexpressed in Sf9; bait N-terminal strep tag II VRN5ΔVEL on Strep-tactin superflow resin, 25 mM HEPES pH 8, 250 mM NaCl, eluted with 5 mM desthiobiotin, Superose 6 increase. For orientation: Size exclusion chromatography separates by hydrodynamic size, large species first.

For test [2] the target is unchanged. As to the kind of experiment: cross-linking; XL-MS of the purified VRN5ΔVEL-PRC2 complex; 1-20 mM EDC, 60 min, room temperature; trypsin digest, LC-MS/MS, MeroX; both purified.
Test [3] concerns the target GFP-VRN5 ΔFN3 (Arabidopsis thaliana) (UniProt Q9LHF5). As to the kind of experiment: co-IP; GFP-tagged VEL protein (wt, mutant or chimera) coexpressed with all four HA-tagged PRC2 subunits (VRN2, SWN, FIE, MSI1) in HEK293T; GFP-trap 90 min at 4°C; lysis buffer 20 mM Tris pH 7.4, 200 mM NaCl, 10% glycerol, 0.2% Triton X-100; anti-HA blot.
In test [4] the target is GFP-VRN5 ΔN (Arabidopsis thaliana) (UniProt Q9LHF5). The description is as above.
Test [5] has as its target GFP-VRN5 ΔPHDs (Arabidopsis thaliana) (UniProt Q9LHF5). The test is described as above.
Test [6] addresses GFP-VRN5 ΔVEL (Arabidopsis thaliana) (UniProt Q9LHF5). The description is as above.

No constants are given. Whether binding was seen depends on the method and setting. Binding can be weak; no strength is given. Sequences can lack the tags named with a protein. For part of these data: In cells and extracts the contact can be indirect.

B1: HA-tagged VRN2(1-397) (domain or fragment, UniProt Q8W5B1 1-397)
chain: MCRQNCRAKSSPEEVISTDENLLIYCKPVRLYNIFHLRSLGNPSFLPRCLNYKIGAKRKRKSRSTGMVVFNYKDCNNTLQRTEVREDCSCPFCSMLCGSFKGLQFHLNSSHDLFEFEFKLLEEYQTVNVSVKLNSFIFEEEGSDDDKFEPFSLCSKPRKRRQRGGRNNTRRLKVCFLPLDSPSLANGTENGIALLNDGNRGLGYPEATELAGQFEMTSNIPPAIAHSSLDAGAKVILTTEAVVPATKTRKLSAERSEARSHLLLQKRQFYHSHRVQPMALEQVMSDRDSEDEVDDDVADFEDRQMLDDFVDVNKDEKQFMHLWNSFVRKQRVIADGHISWACEVFSRFYEKELHCYSSLFWCWRLFLIKLWNHGLVDSATINNCNTILENCRNTSVT
On to B1, for which the binding result in test [1] and in test [2] was “binds” throughout.

B2: HA-tagged VRN2 (protein, UniProt Q8W5B1 1-440)
chain: MCRQNCRAKSSPEEVISTDENLLIYCKPVRLYNIFHLRSLGNPSFLPRCLNYKIGAKRKRKSRSTGMVVFNYKDCNNTLQRTEVREDCSCPFCSMLCGSFKGLQFHLNSSHDLFEFEFKLLEEYQTVNVSVKLNSFIFEEEGSDDDKFEPFSLCSKPRKRRQRGGRNNTRRLKVCFLPLDSPSLANGTENGIALLNDGNRGLGYPEATELAGQFEMTSNIPPAIAHSSLDAGAKVILTTEAVVPATKTRKLSAERSEARSHLLLQKRQFYHSHRVQPMALEQVMSDRDSEDEVDDDVADFEDRQMLDDFVDVNKDEKQFMHLWNSFVRKQRVIADGHISWACEVFSRFYEKELHCYSSLFWCWRLFLIKLWNHGLVDSATINNCNTILENCRNTSVTNNNNNSVDHPSDSNTNNNNIVDHPNDIKNKNNVDNKDNNSRDK
B2: the binding result is “binds” in test [3], “binds” in test [4], “binds weakly” in test [5] and “binds” in test [6].

B3: HA-tagged FIE (protein, UniProt Q9LT47 1-369)
chain: MSKITLGNESIVGSLTPSNKKSYKVTNRIQEGKKPLYAVVFNFLDARFFDVFVTAGGNRITLYNCLGDGAISALQSYADEDKEESFYTVSWACGVNGNPYVAAGGVKGIIRVIDVNSETIHKSLVGHGDSVNEIRTQPLKPQLVITASKDESVRLWNVETGICILIFAGAGGHRYEVLSVDFHPSDIYRFASCGMDTTIKIWSMKEFWTYVEKSFTWTDDPSKFPTKFVQFPVFTASIHTNYVDCNRWFGDFILSKSVDNEILLWEPQLKENSPGEGASDVLLRYPVPMCDIWFIKFSCDLHLSSVAIGNQEGKVYVWDLKSCPPVLITKLSHNQSKSVIRQTAMSVDGSTILACCEDGTIWRWDVITK
On to B3, for which the binding result in test [3] was “binds”; in test [5], “binds weakly”; in test [6] it was “binds”.

B4: HA-tagged SWN (protein, UniProt Q9ZSM8 1-856)
chain: MVTDDSNSSGRIKSHVDDDDDGEEEEDRLEGLENRLSELKRKIQGERVRSIKEKFEANRKKVDAHVSPFSSAASSRATAEDNGNSNMLSSRMRMPLCKLNGFSHGVGDRDYVPTKDVISASVKLPIAERIPPYTTWIFLDRNQRMAEDQSVVGRRQIYYEQHGGETLICSDSEEEPEPEEEKREFSEGEDSIIWLIGQEYGMGEEVQDALCQLLSVDASDILERYNELKLKDKQNTEEFSNSGFKLGISLEKGLGAALDSFDNLFCRRCLVFDCRLHGCSQPLISASEKQPYWSDYEGDRKPCSKHCYLQLKAVREVPETCSNFASKAEEKASEEECSKAVSSDVPHAAASGVSLQVEKTDIGIKNVDSSSGVEQEHGIRGKREVPILKDSNDLPNLSNKKQKTAASDTKMSFVNSVPSLDQALDSTKGDQGGTTDNKVNRDSEADAKEVGEPIPDNSVHDGGSSICQPHHGSGNGAIIIAEMSETSRPSTEWNPIEKDLYLKGVEIFGRNSCLIARNLLSGLKTCLDVSNYMRENEVSVFRRSSTPNLLLDDGRTDPGNDNDEVPPRTRLFRRKGKTRKLKYSTKSAGHPSVWKRIAGGKNQSCKQYTPCGCLSMCGKDCPCLTNETCCEKYCGCSKSCKNRFRGCHCAKSQCRSRQCPCFAAGRECDPDVCRNCWVSCGDGSLGEAPRRGEGQCGNMRLLLRQQQRILLGKSDVAGWGAFLKNSVSKNEYLGEYTGELISHHEADKRGKIYDRANSSFLFDLNDQYVLDAQRKGDKLKFANHSAKPNCYAKVMFVAGDHRVGIFANERIEASEELFYDYRYGPDQAPVWARKPEGSKKDDSAITHRRARKHQSH
Turning to B4, the binding result is listed as “binds” in test [3], “binds” in test [4], “binds weakly” in test [5] and “binds” in test [6].

B5: HA-tagged FIE(1-360) (domain or fragment, UniProt Q9LT47 1-360)
chain: MSKITLGNESIVGSLTPSNKKSYKVTNRIQEGKKPLYAVVFNFLDARFFDVFVTAGGNRITLYNCLGDGAISALQSYADEDKEESFYTVSWACGVNGNPYVAAGGVKGIIRVIDVNSETIHKSLVGHGDSVNEIRTQPLKPQLVITASKDESVRLWNVETGICILIFAGAGGHRYEVLSVDFHPSDIYRFASCGMDTTIKIWSMKEFWTYVEKSFTWTDDPSKFPTKFVQFPVFTASIHTNYVDCNRWFGDFILSKSVDNEILLWEPQLKENSPGEGASDVLLRYPVPMCDIWFIKFSCDLHLSSVAIGNQEGKVYVWDLKSCPPVLITKLSHNQSKSVIRQTAMSVDGSTILACCEDGT
Consider B5, for which the binding entry in test [1] is on record as “binds”.

B6: HA-tagged SWN(29-831) (domain or fragment, UniProt Q9ZSM8 29-831)
chain: LEGLENRLSELKRKIQGERVRSIKEKFEANRKKVDAHVSPFSSAASSRATAEDNGNSNMLSSRMRMPLCKLNGFSHGVGDRDYVPTKDVISASVKLPIAERIPPYTTWIFLDRNQRMAEDQSVVGRRQIYYEQHGGETLICSDSEEEPEPEEEKREFSEGEDSIIWLIGQEYGMGEEVQDALCQLLSVDASDILERYNELKLKDKQNTEEFSNSGFKLGISLEKGLGAALDSFDNLFCRRCLVFDCRLHGCSQPLISASEKQPYWSDYEGDRKPCSKHCYLQLKAVREVPETCSNFASKAEEKASEEECSKAVSSDVPHAAASGVSLQVEKTDIGIKNVDSSSGVEQEHGIRGKREVPILKDSNDLPNLSNKKQKTAASDTKMSFVNSVPSLDQALDSTKGDQGGTTDNKVNRDSEADAKEVGEPIPDNSVHDGGSSICQPHHGSGNGAIIIAEMSETSRPSTEWNPIEKDLYLKGVEIFGRNSCLIARNLLSGLKTCLDVSNYMRENEVSVFRRSSTPNLLLDDGRTDPGNDNDEVPPRTRLFRRKGKTRKLKYSTKSAGHPSVWKRIAGGKNQSCKQYTPCGCLSMCGKDCPCLTNETCCEKYCGCSKSCKNRFRGCHCAKSQCRSRQCPCFAAGRECDPDVCRNCWVSCGDGSLGEAPRRGEGQCGNMRLLLRQQQRILLGKSDVAGWGAFLKNSVSKNEYLGEYTGELISHHEADKRGKIYDRANSSFLFDLNDQYVLDAQRKGDKLKFANHSAKPNCYAKVMFVAGDHRVGIFANERIEASEELFYDYRYGPDQAPVW
With B6, the binding result in test [1] and in test [2] was “binds” each time.

B7: C-terminal HA-tagged MSI1(1-412) (domain or fragment, UniProt O22467 1-412)
chain: MGKDEEEMRGEIEERLINEEYKIWKKNTPFLYDLVITHALEWPSLTVEWLPDREEPSGKDYSVQKMILGTHTSESEPNYLMLAQVQLPLDDTESEARQYDDDRSEFGGFGCATGKVQIIQQINHDGEVNRARYMPQNPFIIATKTVNAEVYVFDYSKHPSKPPLDGACNPDLKLRGHSSEGYGLSWSKFKQGHLLSGSDDAQICLWDINATPKNKSLDAQQIFKAHEGVVEDVAWHLRHEYLFGSVGDDQYLLIWDLRSPSASKPVQSVVAHSMEVNCLAFNPFNEWVVATGSTDKTVKLFDLRKLSTALHTFDSHKEEVFQVGWNPKNETILASCCLGRRLMVWDLSRIDEEQTVEDAEDGPPELLFIHGGHTSKISDFSWNPCEDWVISSVAEDNILQIWQMAENIYHDE
On to B7, for which the binding result in test [1] and in test [2] was “binds” throughout.
